Laboratory results published in patent publication CN106957364A.
No constants are given. Whether binding was seen depends on the method and setting. Some binding calls cover weakened binding; strength is not graded here.

The chains behind the UniProt entries cited, without tags or fusion partners. Where a name states a change or a piece, a line headed by the entry shows the natural chain unless it says otherwise.
UniProt P55899: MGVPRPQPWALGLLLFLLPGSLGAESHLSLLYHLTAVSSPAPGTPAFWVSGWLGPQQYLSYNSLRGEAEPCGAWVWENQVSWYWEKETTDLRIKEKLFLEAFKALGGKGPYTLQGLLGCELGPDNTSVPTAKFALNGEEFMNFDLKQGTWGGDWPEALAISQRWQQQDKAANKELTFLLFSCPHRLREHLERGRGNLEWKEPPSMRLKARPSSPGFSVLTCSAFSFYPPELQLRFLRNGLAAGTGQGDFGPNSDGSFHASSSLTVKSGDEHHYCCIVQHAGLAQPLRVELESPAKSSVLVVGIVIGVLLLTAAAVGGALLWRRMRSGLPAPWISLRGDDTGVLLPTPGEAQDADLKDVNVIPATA
UniProt P61769: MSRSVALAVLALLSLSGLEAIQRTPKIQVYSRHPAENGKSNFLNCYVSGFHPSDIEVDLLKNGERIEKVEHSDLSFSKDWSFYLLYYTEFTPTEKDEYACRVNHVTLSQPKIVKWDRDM

How the values were obtained:
hFcRn&b2M蛋白 (human) [1] = molecular target: T1, hFcRn&b2M蛋白 (human) (UniProt P55899+P61769); experiment: SPR (Biacore), hFcRn on CM5 chip, 200nM analyte
hFcRn&b2M蛋白 (human) [2] = molecular target: T1, hFcRn&b2M蛋白 (human); experiment: SPR, hFcRn&β2M on CM5 chip, 200nM analyte, pH 6.0 and pH 7.4

B1: 融合蛋白G12 (protein)
chain: HGEGTFTSDVSSYLEEQAAKEFIAWLVKGGGGGGGSGGGGSGGGGSDIQLTQSPSSLSASVGDRVTLTCQATQDIDNNLNWYQQKPGKAPKLLIYDASNLETGVPSRFSGSGSGTDFTFTISDLQPEDVATYYCQQYYNLPLTFGGGTKVDIKRSRGGGGSGGGGSGGGGSLEMAEVQLVQSGAEVKKPGASVKVSCKASGYTFTSYDINWVRQATGQGLEWMGWMNPNSGNTGYAQKFQGRVTMTRNTSISTAYMELSSLRSEDTAVYYCARGVDLGDGWGQGTLVTVSS
With B1 the binding (hFcRn&b2M蛋白 (human) [1]) was “binds” and the binding (hFcRn&b2M蛋白 (human) [2]) was “binds”.
